The supplement of paper PMC12889115
This is one part of the list. Values are raw readings; no control value is given beside them.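 Primary screen: polymyxin B was added at a level permeabilizing Salmonella outer membranes while sparing inner membranes. DMSO wells, both with and without polymyxin B, established maximum growth. Plate-to-plate variation meant each plate was ranked on its own, and the lowest-OD600 compounds were selected as hits.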

Tested on: Salmonella enterica serovar Typhimurium SL1344
Assay: bacterial growth OD600 after 18 h with compound and polymyxin B; higher = more bacterial growth (less inhibition)
Conditions: 50 µM, Mueller-Hinton broth

Compound | bacterial growth OD600 (polymyxin B 1 µg/mL) | bacterial growth OD600 (polymyxin B 0.75 µg/mL)
C=CCC(=O)N1CCC(C(=O)Nc2ccc(-c3nc4ccccc4o3)cc2)CC1 | 0.958 | –
CN1N=C(C(=O)N2CCCC(CCc3c(F)cccc3F)C2)CCC1=O (stereo unspecified) | – | 0.864
CCOC(=O)CCNC(=O)N1CCCC(Cc2ccccc2)(C(=O)OCC)C1 (stereo unspecified) | 1.12 | –
CC(C)n1cc(CNCc2cccnc2N(C)C2CCCCC2)cn1 | 1.02 | –
c1csc(CNc2nc3nonc3nc2N2CCCN(Cc3cccs3)CC2)c1 | 0.702 | –
Cc1oc(-c2ccccc2NC(=O)C2CCC2)nc1CNC(=O)Cc1cc(F)cc(F)c1 | – | 0.869
OCCN1CCN(Cc2cn(Cc3ccccc3)nc2-c2ccc3c(c2)OCO3)CC1 | – | 0.785
C=CCCC(=O)N1CCC(C(=O)Nc2cccc(-c3cc4ccccc4[nH]3)c2)CC1 | 0.666 | –
COc1ccc(OC)c(-c2cc(Cl)c3c(c2)CC(CNC(=O)c2ccoc2C)O3)c1 (stereo unspecified) | – | 0.009
COc1ccccc1C(=O)C1CCCN(C(=O)CCc2ccc3c(c2)OCO3)C1 (stereo unspecified) | 0.969 | –
COc1ccc(C(CC(=O)N2CCN(C(C)=O)CC2)c2ccccc2)cc1 (stereo unspecified) | 0.818 | –
COc1ccc(-c2noc(CN3CCN(c4ccccc4)CC3C)n2)c(OC)c1OC (stereo unspecified) | 0.891 | –
CN(C)S(=O)(=O)N1CCc2onc(-c3ccccc3)c2C1 | – | 0.701
OCC1(CCOc2ccccc2)CCCN(Cc2cc(F)ccc2-n2cccn2)C1 (stereo unspecified) | 0.826 | –
CCC(C)CNC(=O)CCc1nnc(CCc2ccc(OC)cc2)o1 (stereo unspecified) | 1.04 | –
Cc1cc2ncn(Cc3cc(C(=O)N(C)CC4CCCN4C)n[nH]3)c2cc1C (stereo unspecified) | 0.906 | –
COc1ccc(-c2noc(CN3CCCC(C(=O)c4ccccc4)C3)n2)cc1 (stereo unspecified) | 0.865 | –
COC(C(=O)Nc1ccnn1C1CCN(C(=O)C2CCCC2)CC1)c1ccccc1 (stereo unspecified) | 0.754 | –
Cc1ccc(C(=O)N2CCC3(CCCN(Cc4cccc(F)c4F)C3)C2)s1 (stereo unspecified) | 0.008 | –
COc1cccc(CN2CCN(C(=O)CCC3(Cc4ccccc4)CCC(=O)N3)CC2=O)c1 (stereo unspecified) | – | 0.781
Cc1n[nH]c(C)c1CCN(C)C(=O)C1CCC(=O)N(CCCN2CCOCC2)C1 (stereo unspecified) | 1.01 | –

Exported field by field: 2 of the compounds above.
COc1ccc(-c2noc(CN3CCN(c4ccccc4)CC3C)n2)c(OC)c1OC (stereo unspecified)
  bacterial growth OD600 (polymyxin B 1 µg/mL): 0.891
CCC(C)CNC(=O)CCc1nnc(CCc2ccc(OC)cc2)o1 (stereo unspecified)
  bacterial growth OD600 (polymyxin B 1 µg/mL): 1.04
